# Source: PubChem BioAssay AID686943 (Drosophila RNAi Screening Center, 2013)
# Purpose: 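Search across the genome for regulators of signalling from receptor tyrosine kinase to ERK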 (primary screen)
# Cells: Drosophila S2R+ haemocyte-like cells expressing YFP-tagged ERK (Rolled)
# Reagents: long dsRNA against Drosophila genes
# Treatment: insulin stimulation versus unstimulated cells; dose and duration not given
# Measurement: 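Per-plate z-scores of phospho-ERK immunostaining normalised to YFP-tagged ERK, measured with and without insulin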
# Reading the numbers: replicate 1, z-score of dpERK with insulin and replicate 2, z-score of dpERK with insulin: higher = more active ERK per ERK-YFP after insulin; replicate 1, z-score of dpERK under basal conditions: higher = more basal active ERK per ERK-YFP; replicate 1, z-score of ERK-YFP with insulin: higher = more YFP-tagged ERK signal
# In all, the deposit lists about 23,000 reagents; shown is an unselected part of those with a known target gene and a result. 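Extra replicates exist only for a retested subset of genes; insulin dose and duration not given; both raised and lowered dpERK matter.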 Names joined by + are all predicted targets of the reagent. No sequences are given here. The record does not give: the amount of reagent, the time to read-out.
gene,DRSC id,"replicate 1, z-score of dpERK with insulin","replicate 2, z-score of dpERK with insulin","replicate 1, z-score of dpERK under basal conditions","replicate 1, z-score of ERK-YFP with insulin"
br (GeneID 44505),DRSC17691,0.4,-0.03,-0.54,-0.01
br (GeneID 44505),DRSC17789,-0.79,-0.28,-0.42,0.01
br (GeneID 44505),DRSC18743,-1.31,-0.34,-1.07,0.23
br (GeneID 44505),DRSC18744,-3.83,-2.76,-2.44,0.51
IFT20 + CG10395,DRSC22660,0.29,0.5,1.88,0.05
Su(Tpl) (GeneID 40171),DRSC10954,1.19,0.9,0.52,-1.96
CG13563 (GeneID 37845),DRSC22153,0.13,0.66,-0.44,1.44
CG43104 (retired record) (GeneID 12798318),DRSC05624,-0.17,0.13,0.51,0.41
CG12560 (GeneID 34092),DRSC02174,-0.16,-0.16,-0.03,-0.07
Top3beta (GeneID 31565),DRSC18724,0.34,-0.23,0.67,-0.33
CG14234 (GeneID 32988),DRSC19317,-0.29,0.77,0.19,0.42
CG14234 (GeneID 32988),DRSC19589,-0.81,-0.19,-0.07,-0.07
CG10737 (GeneID 37202),DRSC05999,0.09,-0.01,0.73,1.1
chp (GeneID 43690),DRSC16925,0.03,0.11,-0.24,0.2
CG42583 (GeneID 8674103),DRSC22937,-0.05,-0.16,-0.22,-0.12
msd5 (GeneID 38156),DRSC08560,0.02,1.33,0.41,-1.71
colt (GeneID 33470),DRSC00808,0.18,-0.13,-0.07,0.04
Tsp42Er (GeneID 35629),DRSC06183,0.76,0.58,-0.32,0.6
CG10395 (GeneID 35490),DRSC04840,-0.68,-0.3,0.12,2.06
orion (GeneID 31712),DRSC18213,0.91,-0.32,1.41,0.07
orion (GeneID 31712),DRSC18214,-0.38,-0.04,0.23,0.5
Vmat (GeneID 3346192),DRSC06961,0.01,0.17,0.25,0.54
Vmat (GeneID 3346192),DRSC06962,-0.08,-0.28,-0.47,0.49
Vmat (GeneID 3346192),DRSC22223,-0.69,-0.93,-1.1,2.42
rad50 (GeneID 37564),DRSC04523,0.38,0.26,-0.16,0.16
CG3500 (GeneID 37697),DRSC04379,0.06,-0.36,-0.01,-1.19
ovm + CG31975,DRSC22146,3.19,0.16,-1.01,1.04
CG31267 (GeneID 318651),DRSC15748,0.36,0.51,-0.06,0.09
Rdl (GeneID 39054),DRSC08967,0.18,0.35,-0.2,0.74
Rdl (GeneID 39054),DRSC11264,0.03,0.19,-0.78,0.84
MED25 (GeneID 42385),DRSC14483,-1.69,-3.61,0.7,-0.04
CG9270 (GeneID 35366),DRSC03182,0.48,0.48,0.28,-1.28
CG13962 (GeneID 35270),DRSC02304,0.11,-0.22,2.34,0.14
RpS10a (GeneID 43321),DRSC14161,0.43,0.99,-0.87,0.52
Rab5 (GeneID 33418),DRSC00777,-0.55,-1.92,0.9,2.99
CG13705 (GeneID 38587),DRSC08314,0.94,0.2,-0.6,-0.07
CG13705 (GeneID 38587),DRSC22691,0.72,-1.84,-0.59,0.21
ND-51L2 (GeneID 36695),DRSC07080,0.12,0.16,0.79,0.59
Rack1 (GeneID 34070),DRSC03405,1.86,2.38,1.49,1.33
